The target of this assay is Arabidopsis thaliana chitin receptor CERK1 ectodomain (Arabidopsis thaliana) (UniProt A8R7E6). Put plainly: SEC; final purification step, HiLoad Superdex 75 16/600 pg, PBS pH 7.4, 500 mM NaCl; mass estimated from the elution volume; both purified.

These are yes or no findings as the source states them, for the method shown.

B1: Arabidopsis thaliana chitin receptor CERK1 ectodomain (domain or fragment, UniProt A8R7E6 24-232)
chain: KCRTSCPLALASYYLENGTTLSVINQNLNSSIAPYDQINFDPILRYNSNIKDKDRIQMGSRVLVPFPCECQPGDFLGHNFSYSVRQEDTYERVAISNYANLTTMESLQARNPFPATNIPLSATLNVLVNCSCGDESVSKDFGLFVTYPLRPEDSLSSIARSSGVSADILQRYNPGVNFNSGNGIVYVPGRDPNGAFPPFKSSKQDGVGA
modifications: N-glycosylated
Consider B1, for which the binding entry is given as “no binding”.

The values above are taken from paper PMC10231839, “A glycan receptor kinase facilitates intracellular accommodation of arbuscular mycorrhiza and symbiotic rhizobia in the legume Lotus japonicus” (PLOS Biology, 2023).
